PubChem BioAssay AID1259298 | Sanger Institute, 2017
Test: 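Kinases whose loss strengthens killing by BYL719, cetuximab or trametinib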 (primary screen). Cells: HT55 human colorectal cancer cell line. Reagent: siRNA pool against human genes. Challenge: anchor drug BYL719 1 µM, cetuximab 5 µg/ml or trametinib 10 nM, or DMSO vehicle alone. Measurement: 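Replicate-averaged viability versus wells of non-targeting pool; knock-down-only robust z-score; per-drug synergy score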. Reading the numbers: robust z-score, knock-down alone: higher = more cells remaining; low means essential gene; viability vs control pool, no drug: higher = more viable cells. Units: viability vs control pool, no drug in fraction. Call rule: 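Essential when the robust z-score for knock-down alone with DMSO is below -3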. Calls: active = essential (knock-down alone); inactive = no change alone.
Shown is an unselected part of 794 deposited reagents. 20 of all reagents (2.5%) count as active. 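Calls rest only on the knock-down-alone score; drug synergy scores played no part in them.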 A number with no mark means an inactive call. Viability is capped at 1. Not all columns of the deposit are shown. Not given: the amount of reagent, the time to read-out.

Depletion of PDPK1 resulted in: robust z-score, knock-down alone 0.235; viability vs control pool, no drug 0.973.
After knock-down of LRRK2, the record shows robust z-score, knock-down alone 0.58; viability vs control pool, no drug 1.
Knock-down of ADCK2 gave: robust z-score, knock-down alone -0.0412; viability vs control pool, no drug 0.951.
Silencing of CDKN1C resulted in: robust z-score, knock-down alone 0.419; viability vs control pool, no drug 0.987.
Against MAP3K12 the deposit lists robust z-score, knock-down alone 0.58; viability vs control pool, no drug 1.
Against AKAP9 the deposit lists robust z-score, knock-down alone -0.779; viability vs control pool, no drug 0.894.
For TSKS, the entry reads robust z-score, knock-down alone 0.58; viability vs control pool, no drug 1.
After knock-down of PAK6, the record shows robust z-score, knock-down alone -0.12; viability vs control pool, no drug 0.945.
IRAK3 gave robust z-score, knock-down alone -2.45; viability vs control pool, no drug 0.763.
With knock-down of PRKY, the screen gave robust z-score, knock-down alone -0.375; viability vs control pool, no drug 0.925.
PLK3 gave robust z-score, knock-down alone 0.58; viability vs control pool, no drug 1.
CDK7 showed robust z-score, knock-down alone 0.58; viability vs control pool, no drug 1.
For TNNI3K the deposit lists robust z-score, knock-down alone 0.58; viability vs control pool, no drug 1.
Depletion of HIPK1 resulted in: robust z-score, knock-down alone 0.58; viability vs control pool, no drug 1.
LRRK1 scored robust z-score, knock-down alone 0.58; viability vs control pool, no drug 1.
With knock-down of MAPK4 the results were robust z-score, knock-down alone -1.42; viability vs control pool, no drug 0.844.
After knock-down of CDKL5, the screen gave robust z-score, knock-down alone 0.58; viability vs control pool, no drug 1.

3 entries from above, sorted by “viability vs control pool, no drug”, ascending:
ADCK2 | robust z-score, knock-down alone = -0.0412; viability vs control pool, no drug = 0.951
PDPK1 | robust z-score, knock-down alone = 0.235; viability vs control pool, no drug = 0.973
LRRK2 | robust z-score, knock-down alone = 0.58; viability vs control pool, no drug = 1

The results go on:
For HK3 the deposit lists robust z-score, knock-down alone -0.338; viability vs control pool, no drug 0.928.
After knock-down of DYRK3, the screen gave robust z-score, knock-down alone 0.58; viability vs control pool, no drug 1.
With knock-down of PIP4K2C, the record shows robust z-score, knock-down alone 0.58; viability vs control pool, no drug 1.
With knock-down of PASK, the screen gave robust z-score, knock-down alone 0.58; viability vs control pool, no drug 1.
After knock-down of SYNCRIP, the screen gave robust z-score, knock-down alone -1.61; viability vs control pool, no drug 0.829.
Depletion of CDK15 resulted in: robust z-score, knock-down alone 0.58; viability vs control pool, no drug 1.
After knock-down of NEK3 the results were robust z-score, knock-down alone -0.0953; viability vs control pool, no drug 0.947.
TP53 scored robust z-score, knock-down alone -0.723; viability vs control pool, no drug 0.898.
Depletion of CEP290 resulted in: robust z-score, knock-down alone 0.58; viability vs control pool, no drug 1.
With knock-down of VRK1 the results were robust z-score, knock-down alone 0.58; viability vs control pool, no drug 1.
CPNE3 showed robust z-score, knock-down alone 0.58; viability vs control pool, no drug 1.
